Here are results for 2 substances from article PMC13022675.

The chains behind the UniProt entries cited, without tags or fusion partners. Residues count along the entry.
UniProt P27824, residues 21-592: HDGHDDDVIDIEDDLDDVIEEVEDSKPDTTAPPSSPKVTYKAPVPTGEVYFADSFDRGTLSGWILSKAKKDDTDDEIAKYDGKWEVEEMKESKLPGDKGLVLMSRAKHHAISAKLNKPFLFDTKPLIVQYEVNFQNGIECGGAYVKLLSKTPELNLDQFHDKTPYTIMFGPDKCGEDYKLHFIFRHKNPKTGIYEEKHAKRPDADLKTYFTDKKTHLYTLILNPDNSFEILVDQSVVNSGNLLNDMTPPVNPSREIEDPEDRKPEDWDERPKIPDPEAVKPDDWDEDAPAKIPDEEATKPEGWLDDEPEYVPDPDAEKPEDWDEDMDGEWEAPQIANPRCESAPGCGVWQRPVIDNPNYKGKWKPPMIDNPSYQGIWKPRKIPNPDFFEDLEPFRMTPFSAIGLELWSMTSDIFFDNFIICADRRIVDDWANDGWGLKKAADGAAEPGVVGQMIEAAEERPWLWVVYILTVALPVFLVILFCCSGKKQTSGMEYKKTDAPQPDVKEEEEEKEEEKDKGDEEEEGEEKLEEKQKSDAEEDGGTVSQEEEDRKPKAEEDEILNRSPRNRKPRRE

The target of assay [1] is GFP-tagged MR1A (MR1-GFP) expressed in clonal cell line D4 (valine to isoleucine at position 12) (UniProt Q95460). As to the kind of experiment: affinity purification with mass spectrometry; MR1-GFP immunoprecipitated with GFPTrap magnetic agarose from 1% digitonin lysates of D4 and D6 cells (dox, 100 μM 6-FP overnight), 4 °C 1 h; on-bead trypsin digestion, data-dependent acquisition (DDA), label-free.

For assay [2] the target is unchanged. As to the kind of experiment: affinity purification with mass spectrometry; MR1-GFP immunoprecipitated with GFPTrap magnetic agarose from 1% digitonin lysates of D4 and D6 cells (dox, 100 μM 6-FP overnight), 4 °C 1 h; in-gel digestion, data-independent acquisition (DIA), label-free.

These are yes or no findings as the source states them, for the method shown. Binding seen in cells or lysates may run through a third protein. These calls come from enrichment with a bait or labelling near it, and not all partners need be listed.

With calnexin (from UniProt P27824 21-592), the binding result in assay [1] is recorded as “binds”.

“sequestosome 1 (from UniProt Q13501 1-440)”: the binding result in assay [2] is “binds”.
